From US8845999B2 (The Regents of the University of California, priority 2005, dated 2014)
At least one compound was matched to its structure with a doubt left.

Target: T1, SGLT1 (Homo sapiens, UniProt P13866)
T1 sequence (P13866 1-664): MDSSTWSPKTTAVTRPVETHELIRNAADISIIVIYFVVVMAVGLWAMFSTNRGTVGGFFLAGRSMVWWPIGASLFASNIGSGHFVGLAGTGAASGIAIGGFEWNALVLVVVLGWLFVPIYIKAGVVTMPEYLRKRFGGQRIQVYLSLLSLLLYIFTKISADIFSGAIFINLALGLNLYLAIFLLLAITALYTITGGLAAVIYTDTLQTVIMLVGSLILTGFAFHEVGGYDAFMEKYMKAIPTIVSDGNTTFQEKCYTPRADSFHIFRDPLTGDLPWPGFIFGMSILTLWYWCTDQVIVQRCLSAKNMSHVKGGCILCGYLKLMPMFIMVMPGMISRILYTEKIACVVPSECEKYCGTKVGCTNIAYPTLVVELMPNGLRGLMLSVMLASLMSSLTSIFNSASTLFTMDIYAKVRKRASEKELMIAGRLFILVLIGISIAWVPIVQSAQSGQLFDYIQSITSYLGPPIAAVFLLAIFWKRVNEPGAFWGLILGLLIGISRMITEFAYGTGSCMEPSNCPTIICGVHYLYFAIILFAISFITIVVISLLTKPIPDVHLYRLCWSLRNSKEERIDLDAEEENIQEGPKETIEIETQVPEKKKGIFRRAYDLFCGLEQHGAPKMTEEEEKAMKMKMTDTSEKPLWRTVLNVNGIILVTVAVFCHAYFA
Assay: Kinetics of halogenated hexose transport by human SGLT1 expressed in Xenopus laevis oocytes, electrophysiological assay
Format: cell-based
Set-up: expressed in transfected cells; host or cells: Xenopus laevis oocytes
Description: We have expressed human SGLT1 in the Xenopus laevis oocyte expression system and measured the kinetics of halogenated hexose transport using standard electrophysiological assays (see Diez-Sampedro et al. J. Biological Chemistry, 2001, 276: 49188-49194). Table 2 presents kinetic measurements of the SGLT1 affinities of various sugars. […] “Km.” is the Michaelis-Menten constant and refers to the ability of a sugar to be a substrate for a specific enzyme or transporter. The lower the Km, the better the substrate. “Vmax” refers to the maximum velocity of transport (or enzymatic reaction). Km is the concentration of substrate at ½ Vmax. “Ki” is an inhibition constant for a specific enzyme or transporter, obtained by competitive kinetics against a known substrate.

`O=C[C@H](O)[C@@H](O)[C@H](O)[C@H](O)CF` [6-F-4-deoxy-D-glucose] was tested, and the Km was 3000 µM.
